Measured data: PubChem BioAssay AID504764 (Drosophila RNAi Screening Center, 2011)
Aim: 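Knock-downs that raise or lower a Notch target reporter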 (primary screen). Cell system: Drosophila Kc167 cells. Reagent: long dsRNA against Drosophila genes. Time to read-out: about 5 days (4 days dsRNA, then 24 h after transfection). Challenge: transfection of constitutively active membrane-tethered Notch lacking the extracellular domain, read 24 h later. Read-out: 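Light from a Notch-responsive E(spl)m3 luciferase reporter under active Notch, with control-promoter and no-Notch reporter wells to normalise; raw counts from paired wells a and b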. Direction: induced reporter light, run 1, well a and induced reporter light, run 1, well b: higher = more light from the Notch target reporter with active Notch; control promoter light, run 1, well a and control promoter light, run 1, well b: higher = more light from the viral control promoter (cell number, transfection, viability); uninduced reporter light, run 1, well a: higher = more light from the Notch target reporter without active Notch. Rule for the call: 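Wells with low control signal or poorly matching duplicates excluded; duplicates averaged; per source plate, z beyond ±2 for induced/control log2 ratio or beyond ±1.8 for induced/uninduced marks a hit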. Meaning of the calls: active = modifier hit (raised or lowered Notch signal); inactive = not a hit.
In all, the deposit lists about 22,000 reagents; shown is an unselected part of those that have a named target and a result. Of all reagents, 403 (1.9%) were called active. 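Unnormalised raw counts per well; ratio z-scores behind the hit calls and whether each hit raises or lowers signal are not deposited.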 Unmarked entries are inactive. The record does not give: the amount of reagent.

Against Gart [DRSC03481], the values are induced reporter light, run 1, well a = 1.16e5; induced reporter light, run 1, well b = 67775; control promoter light, run 1, well a = 87855; control promoter light, run 1, well b = 1.03e5; uninduced reporter light, run 1, well a = 5600.
Against CG14052 [DRSC17907] the deposit lists induced reporter light, run 1, well a = 1.66e5; induced reporter light, run 1, well b = 1.55e5; control promoter light, run 1, well a = 2.42e5; control promoter light, run 1, well b = 2.69e5; uninduced reporter light, run 1, well a = 10020.
Knock-down of CG14052 [DRSC18192] resulted in: induced reporter light, run 1, well a = 94870; induced reporter light, run 1, well b = 1.07e5; control promoter light, run 1, well a = 1.97e5; control promoter light, run 1, well b = 1.51e5; uninduced reporter light, run 1, well a = 7085.
After knock-down of Lnk [DRSC16729] the results were induced reporter light, run 1, well a = 1.45e5; induced reporter light, run 1, well b = 1.61e5; control promoter light, run 1, well a = 2.23e5; control promoter light, run 1, well b = 2.00e5; uninduced reporter light, run 1, well a = 12970.
Against Usp8 [DRSC15876], the values are induced reporter light, run 1, well a = 2.58e5; induced reporter light, run 1, well b = 2.04e5; control promoter light, run 1, well a = 2.77e5; control promoter light, run 1, well b = 2.63e5; uninduced reporter light, run 1, well a = 15120.
After knock-down of MED24 [DRSC10944], the screen gave induced reporter light, run 1, well a = 1.82e5; induced reporter light, run 1, well b = 1.60e5; control promoter light, run 1, well a = 2.17e5; control promoter light, run 1, well b = 1.70e5; uninduced reporter light, run 1, well a = 9760.
For Msp300 [DRSC00854], the entry reads induced reporter light, run 1, well a = 1.28e5; induced reporter light, run 1, well b = 1.20e5; control promoter light, run 1, well a = 1.57e5; control promoter light, run 1, well b = 1.41e5; uninduced reporter light, run 1, well a = 8335.
With knock-down of Msp300 [DRSC00856], the record shows induced reporter light, run 1, well a = 1.10e5; induced reporter light, run 1, well b = 99325; control promoter light, run 1, well a = 1.66e5; control promoter light, run 1, well b = 1.39e5; uninduced reporter light, run 1, well a = 8785.
After knock-down of Msp300 [DRSC00857], the screen gave induced reporter light, run 1, well a = 1.13e5; induced reporter light, run 1, well b = 1.05e5; control promoter light, run 1, well a = 1.20e5; control promoter light, run 1, well b = 1.20e5; uninduced reporter light, run 1, well a = 8685.
Against Msp300 [DRSC00858], the values are induced reporter light, run 1, well a = 86420; induced reporter light, run 1, well b = 79535; control promoter light, run 1, well a = 1.11e5; control promoter light, run 1, well b = 1.10e5; uninduced reporter light, run 1, well a = 6105.
Msp300 [DRSC02360] showed induced reporter light, run 1, well a = 1.55e5; induced reporter light, run 1, well b = 1.19e5; control promoter light, run 1, well a = 1.60e5; control promoter light, run 1, well b = 1.58e5; uninduced reporter light, run 1, well a = 9515.
Depletion of Msp300 [DRSC03369] came out at: induced reporter light, run 1, well a = 1.74e5; induced reporter light, run 1, well b = 1.57e5; control promoter light, run 1, well a = 1.53e5; control promoter light, run 1, well b = 1.81e5; uninduced reporter light, run 1, well a = 16378.
Msp300 [DRSC03370] showed induced reporter light, run 1, well a = 76180; induced reporter light, run 1, well b = 72220; control promoter light, run 1, well a = 53445; control promoter light, run 1, well b = 62965; uninduced reporter light, run 1, well a = 4075.
Silencing of Vha68-2 [DRSC02721] gave: induced reporter light, run 1, well a = 1.43e5; induced reporter light, run 1, well b = 1.52e5; control promoter light, run 1, well a = 1.37e5; control promoter light, run 1, well b = 1.48e5; uninduced reporter light, run 1, well a = 10940.
Depletion of Ankrd49 [DRSC01894] resulted in: induced reporter light, run 1, well a = 1.06e5; induced reporter light, run 1, well b = 1.15e5; control promoter light, run 1, well a = 1.12e5; control promoter light, run 1, well b = 1.45e5; uninduced reporter light, run 1, well a = 10375.
Knock-down of CG15177 [DRSC12557] resulted in: induced reporter light, run 1, well a = 66005; induced reporter light, run 1, well b = 1.02e5; control promoter light, run 1, well a = 81590; control promoter light, run 1, well b = 55430; uninduced reporter light, run 1, well a = 7745.
QC [DRSC09736] gave induced reporter light, run 1, well a = 1.09e5; induced reporter light, run 1, well b = 72840; control promoter light, run 1, well a = 73760; control promoter light, run 1, well b = 21805; uninduced reporter light, run 1, well a = 9930.
Against pb [DRSC12409], the entry reads induced reporter light, run 1, well a = 1.50e5; induced reporter light, run 1, well b = 1.31e5; control promoter light, run 1, well a = 1.79e5; control promoter light, run 1, well b = 1.15e5; uninduced reporter light, run 1, well a = 10795.
pb [DRSC12629] showed induced reporter light, run 1, well a = 33620; induced reporter light, run 1, well b = 29155; control promoter light, run 1, well a = 18325; control promoter light, run 1, well b = 16415; uninduced reporter light, run 1, well a = 3090.

Already shown: an excerpt of the list.
Vha68-2 [DRSC02721] → induced reporter light, run 1, well a: 1.43e5; induced reporter light, run 1, well b: 1.52e5; control promoter light, run 1, well a: 1.37e5; control promoter light, run 1, well b: 1.48e5; uninduced reporter light, run 1, well a: 10940
Ankrd49 [DRSC01894] → induced reporter light, run 1, well a: 1.06e5; induced reporter light, run 1, well b: 1.15e5; control promoter light, run 1, well a: 1.12e5; control promoter light, run 1, well b: 1.45e5; uninduced reporter light, run 1, well a: 10375
CG15177 [DRSC12557] → induced reporter light, run 1, well a: 66005; induced reporter light, run 1, well b: 1.02e5; control promoter light, run 1, well a: 81590; control promoter light, run 1, well b: 55430; uninduced reporter light, run 1, well a: 7745
